Assay results

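Malaria parasite (P. falciparum) lines kept in red blood cells; parasite DNA is measured by SYBR Green fluorescence after lysis, 72 h after compound addition. Each compound was titrated across a series from about 0.000037 to 29 µM. The number is the fitted AC50, the concentration giving a half-maximal change in signal; a lower value means higher potency, whether the curve shows a decrease or an increase. Calls follow the curve class and fit quality: every row here is inconclusive, covering signal-raising curves and weak, poorly fitted, partial or highest-dose-only inhibition curves.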

Values are in µM. All entries here are filed as inconclusive. Only part of the assay is shown, chiefly results filed as inconclusive. A potency from a partial, single-point or poor curve is only a rough figure.

With NC(N)=NN=C(/C=C/c1ccc([N+](=O)[O-])o1)/C=C/c1ccc([N+](=O)[O-])o1 [CP211] the assay gave fitted potency 16.94 µM (inhibitor, single point). NC(N)=NN=C(/C=C/c1ccc([N+](=O)[O-])o1)/C=C/c1ccc([N+](=O)[O-])o1 [PC26] read fitted potency 16.94 µM (inhibitor, single point). NC(N)=NN=C(/C=C/c1ccc([N+](=O)[O-])o1)/C=C/c1ccc([N+](=O)[O-])o1 [CP329] read fitted potency 16.94 µM (inhibitor, single point). NC(N)=NN=C(/C=C/c1ccc([N+](=O)[O-])o1)/C=C/c1ccc([N+](=O)[O-])o1 [DIV30] gave fitted potency 19.01 µM (inhibitor, single point). NC(N)=NN=C(/C=C/c1ccc([N+](=O)[O-])o1)/C=C/c1ccc([N+](=O)[O-])o1 [CP291] gave fitted potency 15.1 µM (inhibitor, single point). With NC(N)=NN=C(/C=C/c1ccc([N+](=O)[O-])o1)/C=C/c1ccc([N+](=O)[O-])o1 [CP194] the assay gave fitted potency 19.01 µM (inhibitor, single point). Result for NC(N)=NN=C(/C=C/c1ccc([N+](=O)[O-])o1)/C=C/c1ccc([N+](=O)[O-])o1 [CP266] was fitted potency 1.2 µM (inhibitor, partial curve, poor fit). NC(N)=NN=C(/C=C/c1ccc([N+](=O)[O-])o1)/C=C/c1ccc([N+](=O)[O-])o1 [CP269] gave fitted potency 19.01 µM (inhibitor, single point).

For NC(N)=NN=C(/C=C/c1ccc([N+](=O)[O-])o1)/C=C/c1ccc([N+](=O)[O-])o1 [CP268] the result was fitted potency 19.01 µM (inhibitor, single point). With NC(N)=NN=C(/C=C/c1ccc([N+](=O)[O-])o1)/C=C/c1ccc([N+](=O)[O-])o1 [CP256] the assay gave fitted potency 15.85 µM (inhibitor, single point). For NC(N)=NN=C(/C=C/c1ccc([N+](=O)[O-])o1)/C=C/c1ccc([N+](=O)[O-])o1 [CP201] the result was fitted potency 19.01 µM (inhibitor, single point). With NC(N)=NN=C(/C=C/c1ccc([N+](=O)[O-])o1)/C=C/c1ccc([N+](=O)[O-])o1 [CP315] the assay gave fitted potency 19.01 µM (inhibitor, single point). For NC(N)=NN=C(/C=C/c1ccc([N+](=O)[O-])o1)/C=C/c1ccc([N+](=O)[O-])o1 [CP192] the result was fitted potency 19.01 µM (inhibitor, single point). NC(N)=NN=C(/C=C/c1ccc([N+](=O)[O-])o1)/C=C/c1ccc([N+](=O)[O-])o1 [CP185] read fitted potency 10 µM (inhibitor, single point).

From PubChem BioAssay record AID504749 (NCATS, 2011).